Source: doi:10.1101/2020.01.03.892703
Results are given in words; binding and its absence hold for the method and conditions named. Binding seen in cells or lysates may run through a third protein. Some entries that bind do so weakly or less than the wild type. For part of these data: Where a sequence is shown, tags or fusion partners need not be part of it.

Sequences of proteins named here, by UniProt entry; tags and fusion partners are left off.
UniProt Q64511: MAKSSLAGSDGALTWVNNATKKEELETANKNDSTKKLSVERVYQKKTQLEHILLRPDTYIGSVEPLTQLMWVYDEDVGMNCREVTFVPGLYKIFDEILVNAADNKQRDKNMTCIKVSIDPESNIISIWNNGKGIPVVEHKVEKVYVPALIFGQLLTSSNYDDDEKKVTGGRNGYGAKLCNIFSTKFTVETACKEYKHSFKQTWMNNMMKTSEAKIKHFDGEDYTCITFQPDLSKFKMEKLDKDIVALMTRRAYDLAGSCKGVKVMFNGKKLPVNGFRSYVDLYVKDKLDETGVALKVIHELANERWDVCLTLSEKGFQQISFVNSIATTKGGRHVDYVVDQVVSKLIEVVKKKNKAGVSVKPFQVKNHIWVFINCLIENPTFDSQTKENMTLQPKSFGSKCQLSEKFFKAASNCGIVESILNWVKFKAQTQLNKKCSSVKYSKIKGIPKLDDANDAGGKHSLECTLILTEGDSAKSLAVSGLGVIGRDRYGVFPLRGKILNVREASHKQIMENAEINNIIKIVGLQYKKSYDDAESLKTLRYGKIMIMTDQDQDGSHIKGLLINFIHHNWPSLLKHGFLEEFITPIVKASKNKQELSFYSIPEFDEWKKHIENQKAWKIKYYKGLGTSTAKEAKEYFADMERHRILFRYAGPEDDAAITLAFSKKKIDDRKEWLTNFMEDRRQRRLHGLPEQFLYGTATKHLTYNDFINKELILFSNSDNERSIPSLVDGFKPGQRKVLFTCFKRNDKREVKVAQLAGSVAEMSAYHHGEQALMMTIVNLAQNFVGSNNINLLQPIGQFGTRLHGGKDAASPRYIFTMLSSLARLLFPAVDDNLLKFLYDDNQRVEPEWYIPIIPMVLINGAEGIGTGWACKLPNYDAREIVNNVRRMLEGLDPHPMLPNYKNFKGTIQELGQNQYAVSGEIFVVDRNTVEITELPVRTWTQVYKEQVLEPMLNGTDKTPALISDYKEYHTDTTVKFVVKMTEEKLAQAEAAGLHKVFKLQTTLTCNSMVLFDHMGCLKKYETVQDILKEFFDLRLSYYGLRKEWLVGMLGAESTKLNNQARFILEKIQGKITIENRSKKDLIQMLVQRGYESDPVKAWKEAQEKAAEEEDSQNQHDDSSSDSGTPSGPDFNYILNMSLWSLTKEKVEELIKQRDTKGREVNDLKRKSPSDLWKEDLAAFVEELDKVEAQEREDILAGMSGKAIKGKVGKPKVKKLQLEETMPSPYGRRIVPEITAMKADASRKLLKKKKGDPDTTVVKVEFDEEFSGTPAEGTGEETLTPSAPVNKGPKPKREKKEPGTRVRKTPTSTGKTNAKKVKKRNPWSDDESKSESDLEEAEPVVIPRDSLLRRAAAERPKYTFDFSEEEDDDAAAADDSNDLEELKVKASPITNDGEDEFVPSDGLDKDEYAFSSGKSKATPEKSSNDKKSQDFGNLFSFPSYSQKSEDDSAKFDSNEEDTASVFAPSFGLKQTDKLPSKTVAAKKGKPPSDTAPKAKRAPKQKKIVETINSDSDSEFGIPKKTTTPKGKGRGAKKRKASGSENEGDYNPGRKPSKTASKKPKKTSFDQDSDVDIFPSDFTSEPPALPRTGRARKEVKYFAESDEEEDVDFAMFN
UniProt Q9CW03: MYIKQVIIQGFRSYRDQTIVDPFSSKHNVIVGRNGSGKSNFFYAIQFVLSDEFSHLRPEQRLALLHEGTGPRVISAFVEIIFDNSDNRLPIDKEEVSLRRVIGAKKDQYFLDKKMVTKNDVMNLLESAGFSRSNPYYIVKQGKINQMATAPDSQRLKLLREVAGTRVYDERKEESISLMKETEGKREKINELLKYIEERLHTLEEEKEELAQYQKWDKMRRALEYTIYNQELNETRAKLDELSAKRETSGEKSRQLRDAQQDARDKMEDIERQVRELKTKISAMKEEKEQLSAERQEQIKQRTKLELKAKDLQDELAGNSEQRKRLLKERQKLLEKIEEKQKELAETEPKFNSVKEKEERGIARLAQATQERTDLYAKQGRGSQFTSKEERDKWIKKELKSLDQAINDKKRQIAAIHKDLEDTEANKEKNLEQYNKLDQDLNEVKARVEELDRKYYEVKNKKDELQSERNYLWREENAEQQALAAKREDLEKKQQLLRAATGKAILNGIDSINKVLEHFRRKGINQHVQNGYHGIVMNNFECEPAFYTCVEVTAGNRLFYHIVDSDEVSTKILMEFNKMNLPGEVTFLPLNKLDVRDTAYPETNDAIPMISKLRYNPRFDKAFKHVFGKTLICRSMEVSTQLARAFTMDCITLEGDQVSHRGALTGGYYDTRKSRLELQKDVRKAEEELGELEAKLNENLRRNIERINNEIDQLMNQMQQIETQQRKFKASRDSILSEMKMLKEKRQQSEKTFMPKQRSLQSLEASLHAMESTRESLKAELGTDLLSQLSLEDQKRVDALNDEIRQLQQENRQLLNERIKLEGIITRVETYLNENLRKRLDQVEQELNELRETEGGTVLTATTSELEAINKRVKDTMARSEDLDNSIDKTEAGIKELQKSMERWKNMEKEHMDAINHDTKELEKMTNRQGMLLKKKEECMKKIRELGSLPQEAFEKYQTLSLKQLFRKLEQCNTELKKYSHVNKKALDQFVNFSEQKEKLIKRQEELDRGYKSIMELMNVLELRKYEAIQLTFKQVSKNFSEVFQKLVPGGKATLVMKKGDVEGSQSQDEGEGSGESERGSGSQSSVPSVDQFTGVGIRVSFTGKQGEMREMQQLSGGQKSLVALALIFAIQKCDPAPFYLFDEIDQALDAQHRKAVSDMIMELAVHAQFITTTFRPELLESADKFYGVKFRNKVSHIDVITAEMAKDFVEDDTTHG
UniProt E9QAP7: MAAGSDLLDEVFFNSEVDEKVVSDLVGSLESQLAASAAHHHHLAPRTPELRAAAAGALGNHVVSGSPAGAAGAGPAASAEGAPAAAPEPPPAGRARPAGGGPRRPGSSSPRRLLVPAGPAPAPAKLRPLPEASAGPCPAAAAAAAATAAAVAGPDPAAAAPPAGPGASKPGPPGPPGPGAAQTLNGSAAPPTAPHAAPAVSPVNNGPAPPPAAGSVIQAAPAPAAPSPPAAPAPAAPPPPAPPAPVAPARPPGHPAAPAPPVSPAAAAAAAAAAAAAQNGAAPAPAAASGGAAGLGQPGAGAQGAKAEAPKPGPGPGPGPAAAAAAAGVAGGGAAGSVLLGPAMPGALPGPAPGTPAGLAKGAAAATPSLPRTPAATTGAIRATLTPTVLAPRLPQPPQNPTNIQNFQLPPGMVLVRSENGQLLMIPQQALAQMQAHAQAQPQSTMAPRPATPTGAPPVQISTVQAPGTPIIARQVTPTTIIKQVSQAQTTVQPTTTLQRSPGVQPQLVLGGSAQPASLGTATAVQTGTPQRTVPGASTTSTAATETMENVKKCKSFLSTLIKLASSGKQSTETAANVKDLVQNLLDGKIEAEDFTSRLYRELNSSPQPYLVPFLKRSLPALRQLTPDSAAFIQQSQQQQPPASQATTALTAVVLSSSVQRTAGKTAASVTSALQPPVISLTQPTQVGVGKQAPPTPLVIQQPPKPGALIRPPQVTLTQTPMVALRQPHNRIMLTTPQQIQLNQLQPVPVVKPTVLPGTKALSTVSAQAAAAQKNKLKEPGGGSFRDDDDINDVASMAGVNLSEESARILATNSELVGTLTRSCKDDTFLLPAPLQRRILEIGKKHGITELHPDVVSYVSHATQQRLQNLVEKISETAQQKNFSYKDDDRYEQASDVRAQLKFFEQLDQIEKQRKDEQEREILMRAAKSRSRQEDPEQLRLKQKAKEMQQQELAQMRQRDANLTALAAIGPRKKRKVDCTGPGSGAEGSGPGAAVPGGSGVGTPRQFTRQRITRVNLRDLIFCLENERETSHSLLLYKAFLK
UniProt Q62311: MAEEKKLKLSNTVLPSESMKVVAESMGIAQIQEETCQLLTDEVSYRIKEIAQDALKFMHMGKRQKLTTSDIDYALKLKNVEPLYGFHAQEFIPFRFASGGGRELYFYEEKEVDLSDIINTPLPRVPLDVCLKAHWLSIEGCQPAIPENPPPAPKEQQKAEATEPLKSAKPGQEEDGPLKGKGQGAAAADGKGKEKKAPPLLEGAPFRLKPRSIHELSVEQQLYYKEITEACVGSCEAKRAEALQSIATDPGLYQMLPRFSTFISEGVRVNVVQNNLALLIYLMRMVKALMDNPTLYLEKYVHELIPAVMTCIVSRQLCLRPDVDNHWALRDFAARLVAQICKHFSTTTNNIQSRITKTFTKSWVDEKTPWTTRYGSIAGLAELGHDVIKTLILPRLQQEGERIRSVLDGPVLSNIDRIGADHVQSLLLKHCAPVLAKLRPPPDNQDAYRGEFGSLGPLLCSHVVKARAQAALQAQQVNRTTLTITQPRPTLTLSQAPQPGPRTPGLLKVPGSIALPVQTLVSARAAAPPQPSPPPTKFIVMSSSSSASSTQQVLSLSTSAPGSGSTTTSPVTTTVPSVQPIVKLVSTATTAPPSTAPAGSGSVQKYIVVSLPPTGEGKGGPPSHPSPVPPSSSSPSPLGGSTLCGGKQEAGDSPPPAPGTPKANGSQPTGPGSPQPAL
UniProt Q8K0H5: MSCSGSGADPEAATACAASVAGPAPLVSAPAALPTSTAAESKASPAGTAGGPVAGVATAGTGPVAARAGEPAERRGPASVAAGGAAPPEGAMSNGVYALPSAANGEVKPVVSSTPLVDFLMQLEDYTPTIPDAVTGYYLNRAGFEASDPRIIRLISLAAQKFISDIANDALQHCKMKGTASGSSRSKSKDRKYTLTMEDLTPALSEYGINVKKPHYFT

Key:
[1] = target: T1, biotin-tagged XPF (mouse (endogenous knock-in in MEFs)) (UniProt Q9QZD4); test: pull-down
T1 sequence (chain, biotin on the 15 aa tag (by the BirA ligase in vivo)): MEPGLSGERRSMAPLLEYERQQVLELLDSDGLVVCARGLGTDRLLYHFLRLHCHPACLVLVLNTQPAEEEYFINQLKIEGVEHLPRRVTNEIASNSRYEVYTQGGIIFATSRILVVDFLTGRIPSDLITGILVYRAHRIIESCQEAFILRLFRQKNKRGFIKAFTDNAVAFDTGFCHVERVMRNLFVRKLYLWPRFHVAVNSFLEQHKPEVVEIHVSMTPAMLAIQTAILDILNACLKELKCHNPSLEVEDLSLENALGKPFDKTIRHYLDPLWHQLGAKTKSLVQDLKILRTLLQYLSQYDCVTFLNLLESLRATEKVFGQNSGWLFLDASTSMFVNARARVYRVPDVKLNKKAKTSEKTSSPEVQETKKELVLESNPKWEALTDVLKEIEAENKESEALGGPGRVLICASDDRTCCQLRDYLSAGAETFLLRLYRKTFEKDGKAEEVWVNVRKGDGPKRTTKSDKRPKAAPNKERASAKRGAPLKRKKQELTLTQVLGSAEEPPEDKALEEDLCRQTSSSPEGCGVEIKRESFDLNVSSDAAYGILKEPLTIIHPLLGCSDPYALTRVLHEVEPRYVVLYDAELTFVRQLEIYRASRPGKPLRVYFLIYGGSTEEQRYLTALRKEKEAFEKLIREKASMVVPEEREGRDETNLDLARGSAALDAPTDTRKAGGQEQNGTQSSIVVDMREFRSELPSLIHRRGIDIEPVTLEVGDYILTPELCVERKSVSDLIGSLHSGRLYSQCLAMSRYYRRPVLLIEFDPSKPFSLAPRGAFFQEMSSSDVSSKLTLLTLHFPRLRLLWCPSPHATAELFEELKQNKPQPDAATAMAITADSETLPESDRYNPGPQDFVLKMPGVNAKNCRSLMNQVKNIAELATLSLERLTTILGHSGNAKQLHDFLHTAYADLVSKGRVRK

[2] = target: Topoisomerase IIβ (mouse (endogenous in MEFs)) (UniProt Q64511); test: co-IP
[3] = target: T2, ERCC1 (mouse (endogenous in MEFs)) (UniProt P07903); test: co-IP
T2 sequence: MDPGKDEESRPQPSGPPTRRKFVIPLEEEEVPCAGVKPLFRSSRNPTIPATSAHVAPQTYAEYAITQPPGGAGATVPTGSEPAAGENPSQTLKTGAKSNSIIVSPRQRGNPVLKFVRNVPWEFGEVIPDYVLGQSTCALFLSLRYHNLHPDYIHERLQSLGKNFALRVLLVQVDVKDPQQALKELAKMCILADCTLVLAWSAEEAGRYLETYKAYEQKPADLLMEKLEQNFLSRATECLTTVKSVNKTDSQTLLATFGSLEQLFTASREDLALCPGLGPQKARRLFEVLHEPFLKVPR

[4] = target: T3, CCCTC-binding factor (mouse (endogenous in MEFs)) (UniProt Q61164); test: co-IP
T3 sequence: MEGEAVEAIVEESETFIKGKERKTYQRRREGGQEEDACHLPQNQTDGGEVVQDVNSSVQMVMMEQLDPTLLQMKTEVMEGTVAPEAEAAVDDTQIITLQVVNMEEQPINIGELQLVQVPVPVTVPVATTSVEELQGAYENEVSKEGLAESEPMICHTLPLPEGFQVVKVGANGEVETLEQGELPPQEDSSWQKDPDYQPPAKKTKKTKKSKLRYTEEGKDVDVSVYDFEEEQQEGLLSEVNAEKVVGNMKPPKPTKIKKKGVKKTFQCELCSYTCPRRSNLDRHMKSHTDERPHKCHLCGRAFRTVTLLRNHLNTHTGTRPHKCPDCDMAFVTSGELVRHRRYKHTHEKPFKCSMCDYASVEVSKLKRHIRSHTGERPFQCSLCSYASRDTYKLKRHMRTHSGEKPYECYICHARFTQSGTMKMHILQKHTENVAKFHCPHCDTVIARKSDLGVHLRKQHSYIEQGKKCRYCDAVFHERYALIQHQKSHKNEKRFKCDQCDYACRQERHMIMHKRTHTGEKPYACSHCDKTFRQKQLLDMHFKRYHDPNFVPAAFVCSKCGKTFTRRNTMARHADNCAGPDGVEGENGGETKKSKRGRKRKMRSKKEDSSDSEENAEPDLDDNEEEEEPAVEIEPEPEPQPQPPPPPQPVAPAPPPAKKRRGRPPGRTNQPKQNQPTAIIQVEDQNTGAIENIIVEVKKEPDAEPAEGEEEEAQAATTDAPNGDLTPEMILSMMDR

Substance | binding [1] | binding [2] | binding [3] | binding [4]
SMC3 (from UniProt Q9CW03 1-1217) | binds | binds | binds | –
TAF4 (from UniProt E9QAP7 1-1042) | binds | – | – | –
TAF6 (from UniProt Q62311 1-678) | binds | – | – | –
TAF10 (from UniProt Q8K0H5 1-218) | binds | – | – | –
Topoisomerase IIβ (from UniProt Q64511 1-1612) | binds | – | binds | binds
